In doi:10.1101/686782:
Results are given in words; binding and its absence hold for the method and conditions named. Binding calls can cover weak binding; strength is not graded here.

Target: P. savastanoi FliP (Pseudomonas savastanoi pv. phaseolicola 1448A) (UniProt Q48GF5)
Assay: cryo-EM structure

B1: P. savastanoi FliR (protein, UniProt Q48GF7 1-258)
chain: MLALTDIQISTWVASFMLPMFRIVALLMTMPVIGTTLVPRRVRLYLAFAITVVVAPALPAMPPVQALDLSGLLLIGEQIIIGAGMGLSLQMFFHIFVIAGQIISTQMGMGFASMVDPTNGVSSAVIGQFFTMLVTLLFLFMNGHLVVLEVLVESFTTMPVGGGLLVNNFWELANGLGWALSSGLRLVLPAITALLIINIAFGVMTRAAPQLNIFSIGFPLTLVLGMVILWMSMGDILNQYQPIASQALQSLRDMVRAR
B1 was tested, and the binding was “binds”.
